Results deposited as PubChem BioAssay AID1159584 (Peter MacCallum Cancer Centre, 2016)

Purpose: 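Genes that CDH1-null MCF10A cells selectively depend on to survive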 (primary screen)
System: human MCF10A breast epithelial cells, parental and CDH1-null
Reagents: siRNA against human genes
Detection: 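Cell viability by CellTiter-Glo ATP luminescence, each line scaled to the mean of mock wells across plates, then CDH1-null over parental ratio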
Reading the numbers: CDH1-null / parental viability ratio: higher = CDH1-null cells survive relatively better than parental
This is an unselected part of about 18,000 reagents tested. Not all columns of the deposit are shown. Not given: the amount of reagent, the time to read-out.

{"Target gene": "TMEM43 (transmembrane protein 43)", "CDH1-null / parental viability ratio": 0.54}
{"Target gene": "PHF20L1 (PHD finger protein 20 like 1)", "CDH1-null / parental viability ratio": 0.93}
{"Target gene": "GOLGA6A (golgin A6 family member A)", "CDH1-null / parental viability ratio": 0.98}
{"Target gene": "RILP (Rab interacting lysosomal protein)", "CDH1-null / parental viability ratio": 0.94}
{"Target gene": "GNLY (granulysin)", "CDH1-null / parental viability ratio": 1.12}
{"Target gene": "CKLF (chemokine like factor)", "CDH1-null / parental viability ratio": 0.87}
{"Target gene": "LRP5L (LDL receptor related protein 5 like (pseudogene))", "CDH1-null / parental viability ratio": 1.26}
{"Target gene": "MTMR3 (myotubularin related protein 3)", "CDH1-null / parental viability ratio": 0.97}
{"Target gene": "KIF3B (kinesin family member 3B)", "CDH1-null / parental viability ratio": 1.05}
{"Target gene": "SLC2A4RG (SLC2A4 regulator)", "CDH1-null / parental viability ratio": 0.73}
{"Target gene": "ASL (argininosuccinate lyase)", "CDH1-null / parental viability ratio": 1.01}
{"Target gene": "CCDC32 (coiled-coil domain containing 32)", "CDH1-null / parental viability ratio": 1.11}
{"Target gene": "FOXA2 (forkhead box A2)", "CDH1-null / parental viability ratio": 0.76}
{"Target gene": "LUZP2 (leucine zipper protein 2)", "CDH1-null / parental viability ratio": 1.03}
{"Target gene": "CCL14 (C-C motif chemokine ligand 14)", "CDH1-null / parental viability ratio": 1.05}
{"Target gene": "LRRTM4 (leucine rich repeat transmembrane neuronal 4)", "CDH1-null / parental viability ratio": 0.8}
{"Target gene": "SLC17A8", "CDH1-null / parental viability ratio": 0.89}
{"Target gene": "CTSV (cathepsin V)", "CDH1-null / parental viability ratio": 1.18}
{"Target gene": "CRYGB (crystallin gamma B)", "CDH1-null / parental viability ratio": 0.95}
{"Target gene": "THAP1 (THAP domain containing 1)", "CDH1-null / parental viability ratio": 1.12}
{"Target gene": "ZNF740 (zinc finger protein 740)", "CDH1-null / parental viability ratio": 0.98}
{"Target gene": "WNT8A (Wnt family member 8A)", "CDH1-null / parental viability ratio": 0.85}
{"Target gene": "PLGLB1 (plasminogen like B1)", "CDH1-null / parental viability ratio": 0.93}
{"Target gene": "H3-5 (H3.5 histone)", "CDH1-null / parental viability ratio": 0.95}

In a second layout: entries from further up.
Target gene	CDH1-null / parental viability ratio
MTMR3 (myotubularin related protein 3)	0.97
KIF3B (kinesin family member 3B)	1.05
SLC2A4RG (SLC2A4 regulator)	0.73
ASL (argininosuccinate lyase)	1.01
